In patent US20100272737A1 (AGENCY FOR SCIENCE TECHNOLOGY AND RESEARCH, published 2010):
Results are given in words; binding and its absence hold for the method and conditions named. Binding seen in cells or lysates may run through a third protein. Some results given as binding are weak or reduced against the parent protein; the word gives no strength.

Molecular target: T1, Flag-tagged Cavβ3-subunit (rat, UniProt P54287 1-484)
T1 construct: whole, on cells; Flag-tagged in co-immunoprecipitation, pull-down and immunofluorescence; also called Flag-Cavβ3; N-Flag Cavβ3-subunits
Assay: co-precipitation

binding: binds
Binder: RSPRAWPRRPRRDYSIDEKTDALFHEFLRHDPHFDDAPR [isolated BARP domain II]
